Measured values reported in patent publication US10130676B2, “Therapeutic peptides for cerebrovascular diseases” (Prime Bio-Drug Development Limited, priority 2015, dated 2018).
Some of these results come from one statement about several compounds together. Ends that are not written are not given here.

Experiment: In vivo distribution of Cy5.5-conjugated peptides after i.v. injection (IVIS optical imaging)
Set-up: species or system C57B/L6 mice
Conditions: after intraperitoneal administration (so in the source)
From the text: The C57B/L6 mice (6˜8 week-old, female) were purchased from National Laboratory Animal Center, Taiwan. For optical imaging, animals were anesthetized by 2% isoflurane gas mixed with oxygen and intravenous injection (i.v.) of Cy5.5-conjugated peptide 1 or Cy5.5-conjugated peptide 5 (35 nmole/per mouse). After administration the mice were placed prone or supine in a dark box and a photographic image was first acquired at low light (exposure time: 5 seconds). At indicated time points after administration of probes, fluorescent signals were obtained using a CCD camera thermoelectrically cooled to −70° C. (Xenogen—IVIS® Spectrum Imaging System, Xenogen Technology). The photon integration period was 1-2 sec.

Substance: DEAQETAVSSH-OH [Peptide 1]
- time to migrate from peripheral circulation through the blood-brain barrier to brain and spinal cord: 15 to 30 min
